The record followed here is article PMC10023679 (Nature Communications, 2023).

Starred links: 1 amine or outer side, 2 acyl side, 3 side chain; linkers in the order of their positions; H or OH if unused. Non-standard residues stand in square brackets, D forms with d. Groups on a side chain read outwards from the residue. *: point of attachment. NH(CH2CH2O)2(CH2)6Cl = ClCCCCCCOCCOCCN*; NMeY = CN[C@@H](Cc1ccc(O)cc1)C(=O)O; Hpla = O=C(O)[C@@H](O)Cc1ccc(O)cc1; Hica(2S) = CC(C)C[C@H](O)C(=O)O; NMeL = CN[C@@H](CC(C)C)C(=O)O; dHica = CC(C)C[C@@H](O)C(=O)O; dNMeL = CN[C@H](CC(C)C)C(=O)O; Suc = O=C(CCC(=O)[*:2])[*:1] Bounds are passed on as bounds.

The nature of one data set: peptide synthesis. Particulars: whole synthesis.
In the case of “cyclo([dA][dP][dL][dV][dA][dP][dNMeL][dV]) (SMILES CC(C)C[C@@H]1C(=O)N[C@H](C(C)C)C(=O)N[C@H](C)C(=O)N2CCC[C@@H]2C(=O)N[C@H](CC(C)C)C(=O)N[C@H](C(C)C)C(=O)N[C@H](C)C(=O)N2CCC[C@@H]2C(=O)N1C)”, the “final purity (method not given)” value is 92%.

Regarding “cyclo([dA][dP][dNMeL][dV][dA][dP][dHica][dV]) (SMILES CC(C)C[C@@H]1C(=O)N[C@H](C(C)C)C(=O)N[C@H](C)C(=O)N2CCC[C@@H]2C(=O)O[C@H](CC(C)C)C(=O)N[C@H](C(C)C)C(=O)N[C@H](C)C(=O)N2CCC[C@@H]2C(=O)N1C)”, the “final purity (method not given)” value was 96%.

A further data set can be described thus: general procedure: Fmoc solid-phase peptide synthesis; 2-chlorotrityl chloride resin (1.6 mmol/g); HATU/DIPEA (manual); COMU (Syro I); DIC/DMAP for ester bonds; PyAOP/HOAt/DIPEA f. Particulars: conjugation step, UPLC (LC purity); UPLC-MS for 8-mer and 9-mer.
For the substance “cyclo(K([Suc-NH(CH2CH2O)2(CH2)6Cl])[dL]LL[dP]Y) (SMILES CC(C)C[C@@H]1NC(=O)[C@@H](CC(C)C)NC(=O)[C@H](CCCCNC(=O)CCC(=O)NCCOCCOCCCCCCCl)NC(=O)[C@H](Cc2ccc(O)cc2)NC(=O)[C@H]2CCCN2C(=O)[C@H](CC(C)C)NC1=O)”, the “final purity (method not given)” value is reported as more than 99%.

On to “cyclo(K([Suc-NH(CH2CH2O)2(CH2)6Cl])[dL]LL[dP][Hpla]) (SMILES CC(C)C[C@@H]1NC(=O)[C@@H](CC(C)C)NC(=O)[C@H](CCCCNC(=O)CCC(=O)NCCOCCOCCCCCCCl)NC(=O)[C@H](Cc2ccc(O)cc2)OC(=O)[C@H]2CCCN2C(=O)[C@H](CC(C)C)NC1=O)”, for which the “final purity (method not given)” value was found to be 98%.

The data set is the same for the next values; noted with them: whole synthesis, UPLC (LC purity); UPLC-MS for 8-mer and 9-mer, scale 100 µmol.
Turning to “cyclo(L[dP]L[dV][NMeL][dP]L[dV]) (SMILES CC(C)C[C@@H]1NC(=O)[C@H]2CCCN2C(=O)[C@H](CC(C)C)NC(=O)[C@@H](C(C)C)NC(=O)[C@H](CC(C)C)NC(=O)[C@H]2CCCN2C(=O)[C@H](CC(C)C)N(C)C(=O)[C@@H](C(C)C)NC1=O)”, the “final purity (method not given)” value is 95%.

Staying with this data set, now noted: whole synthesis, UPLC (LC purity); UPLC-MS for 8-mer and 9-mer, scale of the general procedure 20 mg resin, 32 µmol (6-mers), 100 µmol (8-mer and 9-mer).
Take “cyclo(FK[dL]LL[dP]) (SMILES CC(C)C[C@@H]1NC(=O)[C@@H](CC(C)C)NC(=O)[C@H](CCCCN)NC(=O)[C@H](Cc2ccccc2)NC(=O)[C@H]2CCCN2C(=O)[C@H](CC(C)C)NC1=O)”: the “final HPLC purity” value came to 94%.

Regarding “cyclo(FS[dL]LL[dP]) (SMILES CC(C)C[C@@H]1NC(=O)[C@@H](CC(C)C)NC(=O)[C@H](CO)NC(=O)[C@H](Cc2ccccc2)NC(=O)[C@H]2CCCN2C(=O)[C@H](CC(C)C)NC1=O)”, the “final HPLC purity” value was more than 99%.

With “cyclo(LL[dP]YL[dHica]) (SMILES CC(C)C[C@@H]1NC(=O)[C@@H](CC(C)C)OC(=O)[C@H](CC(C)C)NC(=O)[C@H](Cc2ccc(O)cc2)NC(=O)[C@H]2CCCN2C(=O)[C@H](CC(C)C)NC1=O)”, the “final purity (method not given)” value was more than 99%.

For the substance cyclo(LL[dP]YL[dL]), the “final HPLC purity” value was determined as 96%.

On to “cyclo(LL[dP]Y[Hica(2S)][dL]) (SMILES CC(C)C[C@@H]1NC(=O)[C@@H](CC(C)C)NC(=O)[C@H](CC(C)C)OC(=O)[C@H](Cc2ccc(O)cc2)NC(=O)[C@H]2CCCN2C(=O)[C@H](CC(C)C)NC1=O)”, for which the “final purity (method not given)” value is more than 99%.

As to “cyclo(LL[dP]Y[NMeL][dL]) (SMILES CC(C)C[C@@H]1NC(=O)[C@@H](CC(C)C)NC(=O)[C@H](CC(C)C)N(C)C(=O)[C@H](Cc2ccc(O)cc2)NC(=O)[C@H]2CCCN2C(=O)[C@H](CC(C)C)NC1=O)”, the “final purity (method not given)” value was more than 99%.

As to “cyclo(LL[dP][Hpla]L[dL]) (SMILES CC(C)C[C@@H]1NC(=O)[C@H](Cc2ccc(O)cc2)OC(=O)[C@H]2CCCN2C(=O)[C@H](CC(C)C)NC(=O)[C@H](CC(C)C)NC(=O)[C@@H](CC(C)C)NC1=O)”, the “final purity (method not given)” value is 87%.

For the substance “cyclo(LL[dP][NMeY]L[dL]) (SMILES CC(C)C[C@@H]1NC(=O)[C@@H](CC(C)C)NC(=O)[C@H](CC(C)C)NC(=O)[C@H](Cc2ccc(O)cc2)N(C)C(=O)[C@H]2CCCN2C(=O)[C@H](CC(C)C)NC1=O)”, the “final purity (method not given)” value is on record as more than 99%.

With “cyclo(L[NMeL][dP]YL[dL]) (SMILES CC(C)C[C@@H]1NC(=O)[C@H](Cc2ccc(O)cc2)NC(=O)[C@H]2CCCN2C(=O)[C@H](CC(C)C)N(C)C(=O)[C@H](CC(C)C)NC(=O)[C@@H](CC(C)C)NC1=O)”, the “final purity (method not given)” value was 98%.

As for “cyclo(L[dL]L[Hica(2S)][dP]Y) (SMILES CC(C)C[C@@H]1NC(=O)[C@H](Cc2ccc(O)cc2)NC(=O)[C@H]2CCCN2C(=O)[C@H](CC(C)C)OC(=O)[C@H](CC(C)C)NC(=O)[C@@H](CC(C)C)NC1=O)”, the “final purity (method not given)” value is recorded as more than 99%.

As to “cyclo(L[dL][Hica(2S)]L[dP]Y) (SMILES CC(C)C[C@@H]1NC(=O)[C@H](Cc2ccc(O)cc2)NC(=O)[C@H]2CCCN2C(=O)[C@H](CC(C)C)NC(=O)[C@H](CC(C)C)OC(=O)[C@@H](CC(C)C)NC1=O)”, the “final purity (method not given)” value was more than 99%.

As to “cyclo(L[dL][NMeL]L[dP]Y) (SMILES CC(C)C[C@@H]1NC(=O)[C@H](Cc2ccc(O)cc2)NC(=O)[C@H]2CCCN2C(=O)[C@H](CC(C)C)NC(=O)[C@H](CC(C)C)N(C)C(=O)[C@@H](CC(C)C)NC1=O)”, the “final purity (method not given)” value was more than 99%.

For the substance “cyclo(L[dV][NMeL][dP]L[dV][Hica(2S)][dP]) (SMILES CC(C)C[C@@H]1NC(=O)[C@H]2CCCN2C(=O)[C@H](CC(C)C)OC(=O)[C@@H](C(C)C)NC(=O)[C@H](CC(C)C)NC(=O)[C@H]2CCCN2C(=O)[C@H](CC(C)C)N(C)C(=O)[C@@H](C(C)C)NC1=O)”, the “final purity (method not given)” value is listed as more than 99%.

cyclo(L[dV][NMeL][dP]L[dV][NMeL][dP]): the “final purity (method not given)” value is reported as 97%.

Consider cyclo(YL[dNMeL]LL[dP]), for which the “final purity (method not given)” value was more than 99%.
